Reference: paper PMC12040169 (PLOS Biology, 2025)
This is one part of the list.

The compounds below were run on T1, CTL2-GFP (C. trachomatis L2/434/Bu, GFP-expressing). Settings: bulk GFP, single well; 28.5 h, 10 µM; inhibitor.
T1 construct: L2/434/Bu, GFP-expressing
Design: species or system HeLa; Intracellular C. trachomatis growth in HeLa cells, bulk GFP fluorescence relative to DMSO

Row | Compound | % of control remaining [%]
1 | COc1ccc([C@H]2CN(C(=O)c3ccccn3)[C@@H]3CCCN(C(C)=O)[C@H]23)cc1 [CBK285523] | 122.752
2 | CC(CCc1ccccc1)N(C)CCN(C)C (centres unmarked) [CBK261933] | 103.976
3 | O=C(CN1C2CCC1CC(O)(c1ccco1)C2)NCc1ccccc1 (centres unmarked) [CBK284105] | 104.368
4 | O=C(Cn1cc(-c2ccc(CN3CCCCC3)cc2)nn1)NCc1ccc(Cl)cc1Cl [CBK167689] | 162.08
5 | Cc1ccc2cc(CN(Cc3cccs3)C(=O)NCc3ccccc3)c(=O)[nH]c2c1C [CBK068496] | 100
6 | CS(=O)(=O)N1CC2(CCN(CC(=O)c3ccsc3)CC2)c2ccccc21 [CBK144595T] | 117.504
7 | Cn1c(-c2ccccc2)cnc1NC(=O)C1CN(S(=O)(=O)c2ccc(F)cc2)C1 [CBK285945] | 113.579
8 | CC(C)[C@H](CO)Nc1cncc(-c2ccc(F)cc2F)n1 [CBK065883] | 112.236
9 | CS(=O)(=O)c1ccc(-c2ccc3ccc(=O)[nH]c3n2)cc1 [CBK073719] | 116.172
10 | Cc1cc(CNS(=O)(=O)c2cccc3nonc23)nn1C [CBK062157] | 112.323
11 | O=C(O)c1cccc(Nc2nc(-c3ccccc3)nc3ccccc23)c1 [CBK263941C] | 125.319
12 | C=CCNC(=O)CSc1nc(O)cc(=O)[nH]1 [CBK073298] | 105.486
13 | COc1cc(C2NC(=O)NC(O)(C(F)(F)F)C2C(=O)c2ccccc2)ccc1OCc1ccccc1 (centres unmarked) [CBK264957] | 117.277
14 | COC(=O)c1sc(N2CCOCC2)c(C#N)c1N [CBK006430] | 151.231
15 | O=C(c1ccoc1)N1CCN(S(=O)(=O)c2ccc3c(c2)Cc2cc(S(=O)(=O)N4CCN(C(=O)c5ccco5)CC4)ccc2-3)CC1 [CBK262299] | 100.468
16 | O=C(O)c1cccc(-c2ccc(/C=C3\SC(=S)N(Cc4ccco4)C3=O)o2)c1 [CBK265726] | 149.203
17 | Cc1occc1-c1nnc(SC2CCCCN(C(=O)c3ccc(Cl)cc3)C2=O)n1C (centres unmarked) [CBK296990] | 126.501
18 | O=C(O)/C(Cl)=C(\Cl)C(=O)N1CCC2(CC1)OCCc1c2[nH]c2ccccc12 [CBK047035] | 109.279
19 | Cc1ncsc1C(=O)N1CCNCC1c1cccc(F)c1 (centres unmarked) [CBK305463] | 113.129
20 | NS(=O)(=O)c1ccc(NC(=S)Nc2cccc(C(=O)O)c2)cc1 [CBK266880] | 66.4788
21 | CCn1nc(C)c(NC(=O)c2ncoc2-c2ccc(F)cc2)c1C [CBK282360] | 121.538
22 | CN1CCC[C@H]1C(=O)Nc1ccc2ncccc2c1 [CBK159825] | 124.385
23 | Cc1[nH]ncc1CN1CCCC(c2cc3ccccc3cn2)C1 (centres unmarked) [CBK285029] | 79.6138
24 | COc1cccc(N2C(=O)CC(N3CCN(Cc4ccc5c(c4)OCO5)CC3)C2=O)c1 (centres unmarked) [CBK074411] | 131.95
25 | CCOC(=O)c1nc(N)c2c(CC#N)nn(C)c2n1 [CBK023254] | 117.537

Quoted from the listing for reference:
Row | Compound | % of control remaining [%]
2 | CC(CCc1ccccc1)N(C)CCN(C)C (centres unmarked) [CBK261933] | 103.976
3 | O=C(CN1C2CCC1CC(O)(c1ccco1)C2)NCc1ccccc1 (centres unmarked) [CBK284105] | 104.368

Continued.

Row | Compound | % of control remaining [%]
26 | O=C(/C=C/c1ccc(Cl)cc1)Nc1nnn[nH]1 [CBK265468] | 100
27 | CN1C2CCC1CC(OC(=O)CCN1CCOCC1)C2 (centres unmarked) [CBK261465] | 101.356
28 | O=C(C1CCC1)N1CC(n2nc(-c3ccccc3)ccc2=O)C1 [CBK284624] | 165.591
29 | CC(=O)N[C@H]1[C@H](Oc2ccc3ccccc3c2)O[C@@H]2COC(C)(C)O[C@H]2[C@@H]1O [CBK091644] | 135.709
30 | O=c1c2cc(Cl)ccc2sc2ncccc12 [CBK008118] | 138.673
31 | Cc1nn(Cc2cccc(C(=O)O)c2)c(C)c1Br [CBK286950] | 124.404
32 | Cc1cccc(NS(=O)(=O)c2cc(C(=O)NCc3ccccn3)ccc2C)c1 [CBK268767] | 132.991
33 | COc1ccc2[nH]cc(CCNC(=O)c3ccc([N+](=O)[O-])c(C)c3)c2c1 [CBK269426] | 23.9421
34 | CC(C)OCC(O)Cn1c(NC2CCCCC2)nc2c1c(=O)[nH]c(=O)n2C (centres unmarked) [CBK140893] | 103.815
35 | COC(=O)C#CCNc1cc(Cl)ccc1Cl [CBK025852] | 41.0546
36 | CC(=O)Nc1ccc(OCCO)cc1 [CBK149724] | 120.317
37 | CC(=O)Nc1ccc(N/C=C(/C#N)c2nc(-c3ccc([N+](=O)[O-])cc3)cs2)cc1 [CBK262377] | 95.3325
38 | O=C1CSC2(C(=O)N(Cc3cccc(C(F)(F)F)c3)c3ccccc32)N1c1ccccc1 (centres unmarked) [CBK092392] | 84.5278
39 | OCc1ccc(-c2cc(NCc3cccs3)n3nccc3n2)cc1 [CBK037046] | 117.85
40 | N#CCCCN1CCC(Oc2nccnc2OCc2cccc3ccccc23)CC1 [CBK161571] | 119.248
41 | C/C(=C/C(=O)NCc1ccc(Cl)cc1)C(=O)O [CBK286954] | 120.179
42 | O=c1c2cc(OCc3ccc(Cl)cc3)ccc2nc2n1CCC2 [CBK287977] | 139.662
43 | O=S(=O)(NC1CCCCC1Oc1ccccc1)c1ccc(Cl)cc1 (centres unmarked) [CBK264697] | 92.8332
44 | FC(F)(F)Oc1cccc(-c2cncc(NCc3ccncc3)n2)c1 [CBK065926] | 165.099
45 | Cc1cc(NC(=O)CN(C)C(=O)c2ccc(-n3cc(Br)cn3)cc2)no1 [CBK305575] | 113.38
46 | Cc1cccn2c(=O)cc(CN3CCC(c4cnn(C)c4)CC3)nc12 [CBK305806] | 121.9
47 | COc1cc(C(F)(F)F)c(-c2ncn[nH]2)cn1 [CBK006362] | 100
48 | COCc1ccc(C(=O)N2CCC(c3cc4cnccc4[nH]3)CC2)cc1 [CBK283448] | 109.757
49 | COc1ccc(CC(=O)Nc2nc(OCC(F)(F)F)cnc2-c2ccc(Cl)cc2Cl)cc1 [CBK145359] | 104.129
50 | Clc1ncccc1OCCOc1ccccc1 [CBK003888] | 105.973

Compounds from the list above that have fluorine:
Row | Compound | % of control remaining [%]
7 | Cn1c(-c2ccccc2)cnc1NC(=O)C1CN(S(=O)(=O)c2ccc(F)cc2)C1 [CBK285945] | 113.579
8 | CC(C)[C@H](CO)Nc1cncc(-c2ccc(F)cc2F)n1 [CBK065883] | 112.236
13 | COc1cc(C2NC(=O)NC(O)(C(F)(F)F)C2C(=O)c2ccccc2)ccc1OCc1ccccc1 (centres unmarked) [CBK264957] | 117.277
19 | Cc1ncsc1C(=O)N1CCNCC1c1cccc(F)c1 (centres unmarked) [CBK305463] | 113.129
21 | CCn1nc(C)c(NC(=O)c2ncoc2-c2ccc(F)cc2)c1C [CBK282360] | 121.538
38 | O=C1CSC2(C(=O)N(Cc3cccc(C(F)(F)F)c3)c3ccccc32)N1c1ccccc1 (centres unmarked) [CBK092392] | 84.5278
44 | FC(F)(F)Oc1cccc(-c2cncc(NCc3ccncc3)n2)c1 [CBK065926] | 165.099
47 | COc1cc(C(F)(F)F)c(-c2ncn[nH]2)cn1 [CBK006362] | 100
49 | COc1ccc(CC(=O)Nc2nc(OCC(F)(F)F)cnc2-c2ccc(Cl)cc2Cl)cc1 [CBK145359] | 104.129
